For this experiment, the target named is T1, YFP-EML4 full length (human) (UniProt Q9HC35).
T1 sequence: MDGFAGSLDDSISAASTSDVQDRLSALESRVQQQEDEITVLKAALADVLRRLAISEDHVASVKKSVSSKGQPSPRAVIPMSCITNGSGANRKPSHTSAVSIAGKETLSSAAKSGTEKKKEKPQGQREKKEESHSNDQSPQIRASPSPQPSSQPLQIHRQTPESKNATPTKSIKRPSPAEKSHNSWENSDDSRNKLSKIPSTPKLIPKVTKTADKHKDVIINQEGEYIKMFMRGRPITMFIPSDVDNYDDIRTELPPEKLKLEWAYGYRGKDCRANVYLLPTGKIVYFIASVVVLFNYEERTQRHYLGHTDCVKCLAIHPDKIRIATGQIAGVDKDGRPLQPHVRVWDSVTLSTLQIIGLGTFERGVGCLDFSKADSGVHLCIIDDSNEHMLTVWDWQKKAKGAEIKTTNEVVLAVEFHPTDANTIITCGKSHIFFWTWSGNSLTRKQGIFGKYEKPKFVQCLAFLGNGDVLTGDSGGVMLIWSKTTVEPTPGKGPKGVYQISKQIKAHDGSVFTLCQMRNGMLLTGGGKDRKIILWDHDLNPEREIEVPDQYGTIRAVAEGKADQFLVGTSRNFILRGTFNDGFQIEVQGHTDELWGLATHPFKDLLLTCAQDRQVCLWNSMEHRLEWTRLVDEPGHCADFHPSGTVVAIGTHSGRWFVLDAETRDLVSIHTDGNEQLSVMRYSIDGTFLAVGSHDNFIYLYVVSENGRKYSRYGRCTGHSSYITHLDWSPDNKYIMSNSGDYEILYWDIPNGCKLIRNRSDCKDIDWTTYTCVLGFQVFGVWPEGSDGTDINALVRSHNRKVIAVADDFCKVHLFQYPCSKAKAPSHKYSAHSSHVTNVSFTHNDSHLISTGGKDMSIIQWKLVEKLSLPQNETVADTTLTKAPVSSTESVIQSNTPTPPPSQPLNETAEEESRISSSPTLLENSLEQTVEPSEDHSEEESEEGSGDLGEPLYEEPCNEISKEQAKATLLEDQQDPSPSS
Briefly: co-IP.

By UniProt entry, the sequences of proteins in these tests, tags left out. Where a name states a change or a piece, a line headed by the entry shows the natural chain unless it says otherwise.
UniProt Q8TD19: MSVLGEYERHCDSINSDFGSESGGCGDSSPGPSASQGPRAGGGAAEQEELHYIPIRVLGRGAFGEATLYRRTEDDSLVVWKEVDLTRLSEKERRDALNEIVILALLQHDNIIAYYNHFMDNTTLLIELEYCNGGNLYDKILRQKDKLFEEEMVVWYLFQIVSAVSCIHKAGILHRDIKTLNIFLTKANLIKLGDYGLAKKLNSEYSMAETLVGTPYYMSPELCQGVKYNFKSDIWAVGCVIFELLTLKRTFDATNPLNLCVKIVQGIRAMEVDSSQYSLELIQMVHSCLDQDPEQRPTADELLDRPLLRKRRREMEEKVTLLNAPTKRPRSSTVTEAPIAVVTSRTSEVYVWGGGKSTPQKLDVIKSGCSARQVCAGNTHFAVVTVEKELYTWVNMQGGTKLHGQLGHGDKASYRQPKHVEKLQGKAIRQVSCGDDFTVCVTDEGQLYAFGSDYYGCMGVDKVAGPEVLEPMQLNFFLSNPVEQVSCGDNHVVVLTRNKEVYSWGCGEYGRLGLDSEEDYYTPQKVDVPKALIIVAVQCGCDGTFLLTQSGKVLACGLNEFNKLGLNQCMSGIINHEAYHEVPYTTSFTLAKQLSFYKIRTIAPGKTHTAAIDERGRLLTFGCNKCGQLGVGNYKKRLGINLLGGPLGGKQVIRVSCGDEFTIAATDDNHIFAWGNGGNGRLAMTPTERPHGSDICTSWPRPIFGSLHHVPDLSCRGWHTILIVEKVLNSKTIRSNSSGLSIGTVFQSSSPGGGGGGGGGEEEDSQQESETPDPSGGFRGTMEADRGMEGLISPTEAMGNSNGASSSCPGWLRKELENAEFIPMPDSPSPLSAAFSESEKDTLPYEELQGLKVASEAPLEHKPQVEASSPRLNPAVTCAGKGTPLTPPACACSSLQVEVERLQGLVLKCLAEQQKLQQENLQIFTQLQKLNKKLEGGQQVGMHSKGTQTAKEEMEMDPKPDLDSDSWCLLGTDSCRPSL

These are yes or no findings as the source states them, for the method shown. In cells and extracts the contact can be indirect. Binding can be weak; no strength is given. Where a sequence is shown, tags or fusion partners need not be part of it.

For the substance “myc-NEK9-ΔRCC1, constitutively-activated mutant lacking the RCC1-like domain (from UniProt Q8TD19)”, the binding result was “binds”.

For the origin of these results see publication doi:10.1101/567305.
